Among the data in paper PMC7553939 are binding values, retold here.

Amino acid sequences for entries named in this document (tags omitted).
UniProt Q8BUN5: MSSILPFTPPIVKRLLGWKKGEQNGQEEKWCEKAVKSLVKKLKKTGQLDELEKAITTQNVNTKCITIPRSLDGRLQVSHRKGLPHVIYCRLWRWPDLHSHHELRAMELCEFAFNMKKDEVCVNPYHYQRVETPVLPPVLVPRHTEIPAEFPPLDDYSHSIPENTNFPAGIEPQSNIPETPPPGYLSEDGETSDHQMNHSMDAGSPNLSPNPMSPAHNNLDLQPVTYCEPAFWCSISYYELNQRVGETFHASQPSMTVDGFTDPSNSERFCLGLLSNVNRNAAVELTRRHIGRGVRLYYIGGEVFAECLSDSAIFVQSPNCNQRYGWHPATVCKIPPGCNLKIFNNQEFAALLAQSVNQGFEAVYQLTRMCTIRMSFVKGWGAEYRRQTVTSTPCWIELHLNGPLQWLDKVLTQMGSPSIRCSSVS
UniProt Q62432: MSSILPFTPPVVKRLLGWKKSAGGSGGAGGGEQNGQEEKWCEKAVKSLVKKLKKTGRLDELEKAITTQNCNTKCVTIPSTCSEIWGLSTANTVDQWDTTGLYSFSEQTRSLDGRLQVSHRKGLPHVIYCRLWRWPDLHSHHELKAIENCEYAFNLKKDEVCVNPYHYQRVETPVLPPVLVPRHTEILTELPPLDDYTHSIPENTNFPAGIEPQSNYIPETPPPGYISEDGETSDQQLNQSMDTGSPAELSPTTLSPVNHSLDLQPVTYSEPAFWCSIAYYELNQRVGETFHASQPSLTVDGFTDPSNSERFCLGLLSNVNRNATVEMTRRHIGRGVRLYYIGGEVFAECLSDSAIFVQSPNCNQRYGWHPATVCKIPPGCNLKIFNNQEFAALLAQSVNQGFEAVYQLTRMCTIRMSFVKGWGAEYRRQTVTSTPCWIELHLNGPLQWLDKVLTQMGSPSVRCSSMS
UniProt Q99JW4: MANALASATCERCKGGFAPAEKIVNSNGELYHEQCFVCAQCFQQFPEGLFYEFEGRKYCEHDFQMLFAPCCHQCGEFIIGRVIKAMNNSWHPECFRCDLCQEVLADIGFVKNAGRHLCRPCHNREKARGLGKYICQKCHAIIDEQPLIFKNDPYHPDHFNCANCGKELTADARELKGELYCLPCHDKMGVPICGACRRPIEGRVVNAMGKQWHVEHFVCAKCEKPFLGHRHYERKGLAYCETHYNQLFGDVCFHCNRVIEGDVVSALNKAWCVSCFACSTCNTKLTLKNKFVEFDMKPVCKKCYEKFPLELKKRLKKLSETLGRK

For experiment [1], the target named is Smad3, endogenous in ATDC5 chondrocyte-like cells (mouse (endogenous in ATDC5)) (UniProt Q8BUN5). As to the kind of experiment: co-IP; whole-cell extracts (1 000 μg) of ATDC5 chondrocyte-like cells, endogenous proteins; IP with 3 μg Smad2/3 antibody overnight at 4 °C, protein A/G magnetic beads; western blot with Pinch1 antibody. (In western blotting, separated proteins are transferred to a membrane and probed.)

For experiment [2], the target named is Smad2, endogenous in ATDC5 chondrocyte-like cells (mouse (endogenous in ATDC5)) (UniProt Q62432). The experiment is described as above.

No constants are given. Whether binding was seen depends on the method and setting. Binding seen in cells or lysates may run through a third protein. Some entries that bind do so weakly or less than the wild type.

In the case of “Pinch1, endogenous in ATDC5 chondrocyte-like cells (from UniProt Q99JW4 1-325)”, the binding entry in experiment [1] and in experiment [2] was “binds” each time.
